No constants are given. Whether binding was seen depends on the method and setting.
Biological target: MOY male-determining protein of Ceratitis capitata (Ceratitis capitata)
Test: two-hybrid; GAL4 system (Matchmaker, Clontech); baits in pGBT9 (Gal4 BD), preys in pGAD424 (Gal4 AD); S. cerevisiae AH109; HIS3 reporter, growth on SD/-His/-Leu/-Trp with 20 mM 3-AT, 30 °C; triplicate; each protein as bait and as prey

B1: MOY male-determining protein of Ceratitis capitata (protein, UniProt A0A5B8HDM7 1-70)
chain: MDIGNISSKNTISLITIKYNSRTIKVITSKSRGMEPKFWGKMEIAMTENYFVEEKPLVYNFAIEYRKLMS
For B1, the binding was “no binding”.

Reference: PMC10380613
